# Publication PMC5613012
# By UniProt entry, the sequences of proteins in these tests, tags left out.
# UniProt P58391: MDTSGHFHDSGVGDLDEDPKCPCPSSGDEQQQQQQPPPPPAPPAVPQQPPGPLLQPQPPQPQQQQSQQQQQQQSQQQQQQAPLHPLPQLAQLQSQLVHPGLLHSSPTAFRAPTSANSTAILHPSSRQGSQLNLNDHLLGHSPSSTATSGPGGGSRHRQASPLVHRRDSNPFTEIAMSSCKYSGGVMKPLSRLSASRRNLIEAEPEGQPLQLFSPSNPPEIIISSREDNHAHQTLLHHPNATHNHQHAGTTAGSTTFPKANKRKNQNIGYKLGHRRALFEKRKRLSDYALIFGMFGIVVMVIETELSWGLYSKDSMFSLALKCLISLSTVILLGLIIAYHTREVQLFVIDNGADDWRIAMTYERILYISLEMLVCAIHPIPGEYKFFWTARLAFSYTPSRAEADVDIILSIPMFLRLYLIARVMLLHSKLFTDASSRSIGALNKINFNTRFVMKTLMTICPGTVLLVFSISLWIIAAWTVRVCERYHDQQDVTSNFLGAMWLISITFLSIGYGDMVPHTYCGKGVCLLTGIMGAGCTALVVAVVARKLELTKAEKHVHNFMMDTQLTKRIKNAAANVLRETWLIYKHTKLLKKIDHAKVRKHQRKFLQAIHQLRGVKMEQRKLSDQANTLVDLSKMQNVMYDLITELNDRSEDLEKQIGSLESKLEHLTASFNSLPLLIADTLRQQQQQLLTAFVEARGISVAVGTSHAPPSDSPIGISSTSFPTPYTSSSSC
# UniProt Q9EPK8: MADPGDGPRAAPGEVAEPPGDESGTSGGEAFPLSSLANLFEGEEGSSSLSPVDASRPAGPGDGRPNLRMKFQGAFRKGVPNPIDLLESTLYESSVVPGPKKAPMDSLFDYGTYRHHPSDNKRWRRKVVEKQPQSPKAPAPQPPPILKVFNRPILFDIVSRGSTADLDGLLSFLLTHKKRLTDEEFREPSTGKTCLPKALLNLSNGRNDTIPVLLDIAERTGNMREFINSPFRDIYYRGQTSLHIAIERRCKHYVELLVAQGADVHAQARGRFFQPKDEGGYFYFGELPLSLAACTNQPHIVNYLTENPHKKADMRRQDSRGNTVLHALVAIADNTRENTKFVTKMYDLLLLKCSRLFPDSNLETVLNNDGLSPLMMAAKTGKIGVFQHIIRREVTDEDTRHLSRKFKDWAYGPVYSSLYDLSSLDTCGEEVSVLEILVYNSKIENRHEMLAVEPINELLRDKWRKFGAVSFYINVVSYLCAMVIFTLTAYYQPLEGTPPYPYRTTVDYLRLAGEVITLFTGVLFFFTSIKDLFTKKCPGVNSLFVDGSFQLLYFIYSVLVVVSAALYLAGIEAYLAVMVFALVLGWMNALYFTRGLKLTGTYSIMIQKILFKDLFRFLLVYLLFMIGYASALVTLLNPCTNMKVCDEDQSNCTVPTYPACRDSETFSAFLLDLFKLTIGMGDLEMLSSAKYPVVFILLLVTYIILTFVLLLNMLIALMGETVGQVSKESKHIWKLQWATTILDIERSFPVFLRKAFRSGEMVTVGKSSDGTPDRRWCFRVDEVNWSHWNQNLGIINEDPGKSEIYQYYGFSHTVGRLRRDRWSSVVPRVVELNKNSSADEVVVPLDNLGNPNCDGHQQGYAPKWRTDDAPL
# No constants are given. Whether binding was seen depends on the method and setting. Binding seen in cells or lysates may run through a third protein. Some results given as binding are weak or reduced against the parent protein; the word gives no strength.
# Key:
# [1] = target: small conductance Ca2+-activated K+ (SK3) channel (mouse (endogenous in detrusor muscle)) (UniProt P58391); assay: proximity ligation; isolated murine detrusor PDGFRα+ cells (eGFP), fixed in 4% paraformaldehyde and permeabilized; goat anti-TRPV4 and rabbit anti-SK3 antibodies, Duolink detection
# [2] = target: small conductance Ca2+-activated K+ (SK3) channel (mouse (endogenous in detrusor muscle)) (UniProt P58391); assay: co-IP; 500 µg of murine detrusor membrane fraction (100,000 x g pellet resuspended in lysis buffer with 0.1% SDS), pre-cleared; rabbit TRPV4 or rabbit SK3 antibody crosslinked to protein A/G-Dynabeads, 2 hours at 4 °C; eluates analysed by Wes capillary western; non-immune rabbit IgG as control
# [3] = target: TRPV4 channel (mouse (endogenous in detrusor muscle)) (UniProt Q9EPK8); assay: as above
binding [1],binding [2],binding [3],Substance
binds,binds,,TRPV4 channel (from UniProt Q9EPK8 1-871)
,,binds,small conductance Ca2+-activated K+ (SK3) channel (from UniProt P58391 1-732)
